Test results: patent publication CN110903397A
These are yes or no findings as the source states them, for the method shown. Some entries that bind do so weakly or less than the wild type.

Protein sequences, listed by entry. Tags and fused reporters are not part of them. Residues count along the entry.
UniProt Q8NBP7, residues 31-692: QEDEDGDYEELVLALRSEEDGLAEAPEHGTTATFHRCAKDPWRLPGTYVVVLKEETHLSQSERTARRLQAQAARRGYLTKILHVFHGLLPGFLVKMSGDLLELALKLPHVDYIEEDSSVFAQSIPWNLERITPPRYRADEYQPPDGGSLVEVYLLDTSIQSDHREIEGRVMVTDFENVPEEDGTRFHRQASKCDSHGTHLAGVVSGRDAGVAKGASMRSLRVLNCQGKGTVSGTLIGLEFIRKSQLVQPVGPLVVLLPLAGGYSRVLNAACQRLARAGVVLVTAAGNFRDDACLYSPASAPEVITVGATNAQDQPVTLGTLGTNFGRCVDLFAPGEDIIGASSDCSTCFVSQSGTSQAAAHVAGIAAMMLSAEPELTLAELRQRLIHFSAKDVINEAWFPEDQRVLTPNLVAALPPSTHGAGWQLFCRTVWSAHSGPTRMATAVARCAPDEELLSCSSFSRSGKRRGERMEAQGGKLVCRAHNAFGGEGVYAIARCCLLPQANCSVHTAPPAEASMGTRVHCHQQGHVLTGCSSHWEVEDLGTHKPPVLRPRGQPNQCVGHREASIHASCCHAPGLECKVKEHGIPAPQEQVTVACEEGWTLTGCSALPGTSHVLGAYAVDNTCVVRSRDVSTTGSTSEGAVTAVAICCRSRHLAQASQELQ

Columns and labels:
[1] = target: 重组人PCSK9蛋白 (人前蛋白转化酶枯草溶菌素9) (human) (UniProt Q8NBP7); assay: indirect phage ELISA, PCSK9 coated, HRP-anti-M13 detection
[2] = target: 重组人PCSK9蛋白 (人前蛋白转化酶枯草溶菌素9) (human) (UniProt Q8NBP7); assay: immunoblot, recombinant PCSK9 as antigen, HRP goat anti-human secondary antibody

B1: 噬菌体展示的PCSK9特异性全人源scFv (目标噬菌体) (scFv, V domains shown)
VH: QVQLVQSGAEVKKPGSSVKVSCQASGGTFSGYDIHWVRQATGQGLEWMGWMNPHSGNAGYAQKFQGRVTMTRDTSTATAYMELTSLTSDDTAVYYCARYAQLSLEWGQGTLVTVSS
VL: EIVLTQSPVTLSVSPGERATLSCRASQSVIGNLAWYQQKPGQAPRLLIYGASARAAGIPDRFSGSGSGTDFTLTISSLKSEDFAVYYCQQYGSSPYTFGQGTKLEIK
For B1, the binding [1] was “binds”.

B2: 人PCSK9特异性全人源抗体3D2 (antibody, human IgG1, V domains shown)
VH: QVQLVQSGAEVKKPGSSVKVSCQASGGTFSGYDIHWVRQATGQGLEWMGWMNPHSGNAGYAQKFQGRVTMTRDTSTATAYMELTSLTSDDTAVYYCARYAQLSLEWGQGTLVTVSS
VL: EIVLTQSPVTLSVSPGERATLSCRASQSVIGNLAWYQQKPGQAPRLLIYGASARAAGIPDRFSGSGSGTDFTLTISSLKSEDFAVYYCQQYGSSPYTFGQGTKLEIK
For B2, the binding [2] was “binds”.
